PubChem BioAssay AID1159578 – Peter MacCallum Cancer Centre | 2015

Screen: 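siRNA pools altering how lymphatic endothelial cells close a scratch wound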 (primary screen)
Cells: human lymphatic endothelial cells
Reagents: siRNA pool against human genes, 40 nM
Duration: 48 h after transfection
Read-out: 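High-content imaging of dye-stained cells in a scratch assay measures filled wound area and nuclei per well; duplicate means given as ratio to mock and robust z-score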
Reading the numbers: migration robust z-score: higher = faster migration into the scratch; migration relative to mock: higher = more scratch area covered than mock; nuclei per well: higher = more cells in the well
Hit rule: 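Pools averaging fewer than 3300 nuclei are never called; remaining pools count as changed when migration robust z lies outside -2 to 2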
Calls: active = migration changed; inactive = no migration change, or too few cells
In all, the deposit lists about 18,000 reagents; shown is a random part of them. About 1,030 of all reagents (5.7%) were called active. 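Inactive calls also include pools with fewer than 3300 nuclei, whose migration was not assessed.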 The raw values are shown without normalisation. A number with no mark means an inactive call.

gene | migration robust z-score | migration class with cell-count check | migration relative to mock | nuclei per well, duplicate mean
OSTCP1 (oligosaccharyltransferase complex subunit pseudogene 1) | -0.02 | migration z between -2 and 2; enough cells | 0.88 | 5652
OR10G3 (olfactory receptor family 10 subfamily G member 3) | 0.07 | migration z between -2 and 2; enough cells | 0.9 | 5338
NPHS2 (NPHS2 stomatin family member, podocin) | -0.93 | migration z between -2 and 2; enough cells | 0.62 | 6620
PRPF39 (pre-mRNA processing factor 39) | 0.52 | migration z between -2 and 2; enough cells | 1.02 | 6565
CYC1 (cytochrome c1) | -0.47 | migration z between -2 and 2; enough cells | 0.72 | 6960
ZNF35 (zinc finger protein 35) | 0.26 | migration z between -2 and 2; enough cells | 0.86 | 5844
CCL27 (C-C motif chemokine ligand 27) | -0.2 | migration z between -2 and 2; enough cells | 0.83 | 6189
RTP2 (receptor transporter protein 2) | 0.07 | migration z between -2 and 2; enough cells | 0.9 | 6570
SAP130 (Sin3A associated protein 130) | -0.2 | migration z between -2 and 2; enough cells | 0.83 | 5460
ZNF157 (zinc finger protein 157) | 0.97 | migration z between -2 and 2; enough cells | 1.13 | 5220
TOP2A (DNA topoisomerase II alpha) | 1.64 | migration z between -2 and 2; enough cells | 1.12 | 3702
CLEC11A (C-type lectin domain containing 11A) | 1.5 | migration z between -2 and 2; enough cells | 1.09 | 4801
CPNE2 (copine 2) | -1.54 | migration z between -2 and 2; enough cells | 0.48 | 6052
CCL3L3 (C-C motif chemokine ligand 3 like 3) | 0.26 | migration z between -2 and 2; enough cells | 0.96 | 6002
PPP1R42 (protein phosphatase 1 regulatory subunit 42) | -1.05 | migration z between -2 and 2; enough cells | 0.62 | 6768
SPANXC (SPANX family member C) | -1.5 | migration z between -2 and 2; enough cells | 0.5 | 4246
SLC9A8 | 0.44 | migration z between -2 and 2; enough cells | 1 | 4886
SYTL3 (synaptotagmin like 3) | -1.38 | migration z between -2 and 2; enough cells | 0.54 | 6324
CD14 (CD14 molecule) | -0.6 | migration z between -2 and 2; enough cells | 0.69 | 7358
ZBP1 (Z-DNA binding protein 1) | -1.01 | migration z between -2 and 2; enough cells | 0.62 | 5507
RGPD5 (RANBP2 like and GRIP domain containing 5) | -1.04 | migration z between -2 and 2; enough cells | 0.61 | 5878
FKBP11 (FKBP prolyl isomerase 11) | -0.91 | migration z between -2 and 2; enough cells | 0.63 | 5817
SPINK1 (serine peptidase inhibitor Kazal type 1) | 0.05 | migration z between -2 and 2; enough cells | 0.82 | 4506

Entries listed so far whose target name starts with Z or z:
gene | migration robust z-score | migration class with cell-count check | migration relative to mock | nuclei per well, duplicate mean
ZNF35 (zinc finger protein 35) | 0.26 | migration z between -2 and 2; enough cells | 0.86 | 5844
ZNF157 (zinc finger protein 157) | 0.97 | migration z between -2 and 2; enough cells | 1.13 | 5220
ZBP1 (Z-DNA binding protein 1) | -1.01 | migration z between -2 and 2; enough cells | 0.62 | 5507
